# Measured data: PubChem BioAssay AID743121 (NCATS, 2013)
# Purpose: 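Genes whose silencing strengthens cell killing by camptothecin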 (primary screen)
# System: MDA-MB-231 cells, a human breast cancer line
# Reagents: single siRNA against human genes, 20 nM siRNA (0.8 pmol per well)
# Time to read-out: 120 h (drug added 48 h after transfection, read 72 h later)
# Conditions: camptothecin 20 nM (about EC30) for 72 h; vehicle 0.1% DMSO in parallel plates
# Measured: 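Cell viability by ATP luminescence (CellTiter-Glo) as % of non-targeting siRNA wells, and the log2 ratio of viability without drug over viability with camptothecin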
# Direction: log2 vehicle/camptothecin viability: higher = stronger sensitisation to camptothecin
# Active means: 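Each gene scored by redundant siRNA activity (RSA) over its individual siRNA ratios; a gene is called active at p < 0.001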
# The whole screen tested about 26,000 reagents; this is an unselected part. 167 of them (0.63%) count as active. 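Calls are per gene from RSA p-values that are not deposited; an individual active-marked siRNA can sensitise only weakly.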 The numbers tell different reagents against one gene apart. Not all columns of the deposit are shown.
target gene,siRNA no.,log2 vehicle/camptothecin viability,Outcome
IL7,1,-0.18,inactive
IL7,2,-0.239,inactive
IL7,3,0.0108,inactive
IL7,4,-0.249,inactive
HSD17B7P2,1,-0.613,inactive
BABAM2,1,-0.274,inactive
BABAM2,2,-0.474,inactive
BABAM2,3,-0.0862,inactive
BABAM2,4,0.0198,inactive
COL6A3,1,-0.469,inactive
COL6A3,2,-0.173,inactive
COL6A3,3,-0.167,inactive
GULP1,1,-0.0261,inactive
GULP1,2,0.0899,inactive
GULP1,3,0.0323,inactive
DLL3,1,0.12,inactive
DLL3,2,-0.0706,inactive
STX17,1,0.175,inactive
STX17,2,-0.287,inactive
STX17,3,-0.442,inactive
STX17,4,-0.124,inactive
IK,1,-0.276,inactive
IK,2,-0.0301,inactive
IK,3,0.173,inactive
IK,4,-1.22,inactive
HOXD10,1,-0.0332,inactive
HOXD10,2,0.198,inactive
HOXD10,3,0.158,inactive
HOXD10,4,-0.569,inactive
GHRH,1,-0.0859,inactive
GHRH,2,-0.223,inactive
GHRH,3,0.0279,inactive
GHRH,4,-0.0465,inactive
PAK4,1,-0.477,inactive
PAK4,2,-0.0243,inactive
PAK4,3,-0.0774,inactive
PAK4,4,-0.107,inactive
CLEC7A,1,-0.54,inactive
CLEC7A,2,0.0991,inactive
CLEC7A,3,-0.00472,inactive
CLEC7A,4,-0.501,inactive
PER3,1,-0.124,inactive
PER3,2,-0.375,inactive
PER3,3,-0.15,inactive
SLC39A6,1,-0.0322,inactive
SLC39A6,2,0.858,inactive
SLC39A6,3,-0.225,inactive
SLC39A6,4,0.0573,inactive
